Earlier results in patent publication US5506359A, “Cocaine analogues and their use as cocaine drug therapies and therapeutic and imaging agents for neurodegenerative disorders” (priority 1993, dated 1996).
Where two headings read alike, the source gives them in different places. Structures were worked out from names or drawings and are uncertain.

Columns and labels:
[1] = test system: binding sites for cocaine in brain tissue; details: tested as the radiolabelled form, cited from earlier work
[2] = test system: cocaine binding sites associated with the dopamine transporter; details: tested as the radiolabelled form; cited from earlier work

COC(=O)[C@H]1[C@@H](OC(=O)c2ccccc2)C[C@@H]2CC[C@H]1N2C [(-)-cocaine]
Kd ([1]; read-out: K0.50, all brain regions studied): 300 nM
Kd ([1]; read-out: affinity of [^3 H]cocaine for sites, saturable binding): 10 to 1000 nM
dissociation from receptor [1]: dissociates rapidly
[^3 H]cocaine binding sites in postmortem Parkinson's diseased putamen [2]: Depletion
